Assay results from PubChem BioAssay AID2685 (National Center for Advancing Translational Sciences (NCATS), 2010).
The other results are listed elsewhere or left out. These are further read-outs of the screen, such as a control signal, another cell line or another target. No call is given for them. Most of these compounds were active or inconclusive in the main read-out, so they are no random draw. Potencies come from curve fits of mixed quality, noted in brackets.

Experiment: qHTS Assay for Lipid Storage Modulators in Drosophila S3 Cells;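 on cell number change: cells counted by Cell Tracker Red CMTPX staining in the red channel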
Settings: BODIPY lipid droplet fluorescence, 18-24 h; for cell number change: measured here: cell count max response, cells fed with added oleic acid
In short: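 Laser-scanning cytometry quantifies lipid droplet accumulation (500–530 nm total intensity; droplet/cell object ratio) in oleic acid-fed (400 uM added) Drosophila S3 cells treated with a concentration series. 20 uM Triacsin C defined 100% inhibition.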

[1] = measured here: cell number channel AC50, cells fed with added oleic acid
[2] = measured here: lipid fluorescence (Fed channel) AC50, cells fed with added oleic acid

SMILES | cell number change | AC50 [1] | AC50 [2]
COc1ccc(C)cc1Nc1nc(-c2c(C)[nH]c3ccccc23)cs1 | -2.41% |  | 
CCSc1nc2ccccc2n1C(=O)/C=C\c1ccc(OC)c(OC)c1 | -59.3% | 23.1 µM [falling, single point] | 
CCOc1cc(CNCCSc2nnnn2C)cc(Br)c1OCc1ccc(F)cc1 | -31.6% | 13 µM [falling, single point] | 16.4 µM [falling, single point]
Cn1nccc1CNC(=O)c1c(Cl)cnn1C | -2.07% |  | 0.58 µM [falling, single point]
CCOC(=O)C1(CC2CC2)CCN(C(=O)c2cc(C)nc3ccc(CC)cc23)CC1 | -18.6% |  | 
CC(=O)c1ccc(NC(=O)C(C)OC(=O)CCCN=C2NS(=O)(=O)c3ccccc32)cc1 (stereo unspecified) | -8.48% |  | 6.51 µM [falling, single point]
CCCCNC(=O)c1cc2c(=O)n3cccc(C)c3nc2n(Cc2ccncc2)c1=N |  |  | 0.58 µM [rising, single point]
Cc1ccc(C(c2cc(Br)ccc2O)N2CCSCC2)cc1 (stereo unspecified) | 14.4% |  | 29.1 µM [falling, single point]
COc1ccccc1NC(=O)N(c1c(N)n(Cc2ccccc2)c(=O)[nH]c1=O)C1CCCC1 | 3.54% |  | 
Oc1ccc(-c2csc(Nc3ncccn3)n2)cc1O | -6.09% |  | 
COc1ccc(C2=NO[C@@H]3C(=O)N(c4ccc(C)cc4C)C(=O)[C@H]23)cc1OC | 32.7% | 29.1 µM [rising, single point] | 0.116 µM [falling, full curve, poor fit]
C=CCOc1ccccc1CN1CCCCCC1 | 4.49% |  | 0.259 µM [rising, full curve, poor fit]
CCN(C(=O)COC(=O)c1ccccc1NCCO)C1CCS(=O)(=O)C1 (stereo unspecified) | -22.9% |  | 
Cc1oc(C(C)(C)C)cc1C(=O)NCc1ccc2c(c1)OCO2 | -22.9% | 3.26 µM [falling, full curve, poor fit] | 4.11 µM [falling, full curve]
CCOC(=O)c1c(C)nc2cc(C)cc(C)n12 |  |  | 6.31 µM [rising, partial curve]
Oc1ccc(-c2nc3ccccc3nc2-c2ccccc2)cc1 |  |  | 20.6 µM [falling, single point]
O=C(Nc1ccccc1Cl)c1ccc(-n2cccn2)c([N+](=O)[O-])c1 | -6.46% |  | 
Cc1ccc(C2NC(=O)c3ccccc3O2)cc1 (stereo unspecified) | 2.76% |  | 29.1 µM [rising, single point]
CC1CCCCN1CCNC(=O)c1cc2c(=O)n(C)c3ccccc3c2n1C (stereo unspecified) | 31.7% | 6.51 µM [rising, single point] | 0.731 µM [rising, partial curve]
CCOc1ccccc1NC(=O)c1ccoc1C | 30.4% | 29.1 µM [rising, single point] | 
C=CCN(c1ccccc1)S(=O)(=O)c1cccc(C(=O)NNC(=O)c2ccccc2O)c1 | 35% | 18.4 µM [rising, single point] | 18.4 µM [rising, single point]

Rewritten comma-delimited: part of the list above.
SMILES,cell number change,AC50 [1],AC50 [2]
COc1ccc(C)cc1Nc1nc(-c2c(C)[nH]c3ccccc23)cs1,-2.41%,,
CCSc1nc2ccccc2n1C(=O)/C=C\c1ccc(OC)c(OC)c1,-59.3%,"23.1 µM [falling, single point]",
CCOc1cc(CNCCSc2nnnn2C)cc(Br)c1OCc1ccc(F)cc1,-31.6%,"13 µM [falling, single point]","16.4 µM [falling, single point]"
Cn1nccc1CNC(=O)c1c(Cl)cnn1C,-2.07%,,"0.58 µM [falling, single point]"
CCOC(=O)C1(CC2CC2)CCN(C(=O)c2cc(C)nc3ccc(CC)cc23)CC1,-18.6%,,
CC(=O)c1ccc(NC(=O)C(C)OC(=O)CCCN=C2NS(=O)(=O)c3ccccc32)cc1 (stereo unspecified),-8.48%,,"6.51 µM [falling, single point]"
CCCCNC(=O)c1cc2c(=O)n3cccc(C)c3nc2n(Cc2ccncc2)c1=N,,,"0.58 µM [rising, single point]"
Cc1ccc(C(c2cc(Br)ccc2O)N2CCSCC2)cc1 (stereo unspecified),14.4%,,"29.1 µM [falling, single point]"
COc1ccccc1NC(=O)N(c1c(N)n(Cc2ccccc2)c(=O)[nH]c1=O)C1CCCC1,3.54%,,
Oc1ccc(-c2csc(Nc3ncccn3)n2)cc1O,-6.09%,,
COc1ccc(C2=NO[C@@H]3C(=O)N(c4ccc(C)cc4C)C(=O)[C@H]23)cc1OC,32.7%,"29.1 µM [rising, single point]","0.116 µM [falling, full curve, poor fit]"
C=CCOc1ccccc1CN1CCCCCC1,4.49%,,"0.259 µM [rising, full curve, poor fit]"
CCN(C(=O)COC(=O)c1ccccc1NCCO)C1CCS(=O)(=O)C1 (stereo unspecified),-22.9%,,
Cc1oc(C(C)(C)C)cc1C(=O)NCc1ccc2c(c1)OCO2,-22.9%,"3.26 µM [falling, full curve, poor fit]","4.11 µM [falling, full curve]"
CCOC(=O)c1c(C)nc2cc(C)cc(C)n12,,,"6.31 µM [rising, partial curve]"
Oc1ccc(-c2nc3ccccc3nc2-c2ccccc2)cc1,,,"20.6 µM [falling, single point]"
O=C(Nc1ccccc1Cl)c1ccc(-n2cccn2)c([N+](=O)[O-])c1,-6.46%,,
Cc1ccc(C2NC(=O)c3ccccc3O2)cc1 (stereo unspecified),2.76%,,"29.1 µM [rising, single point]"
CC1CCCCN1CCNC(=O)c1cc2c(=O)n(C)c3ccccc3c2n1C (stereo unspecified),31.7%,"6.51 µM [rising, single point]","0.731 µM [rising, partial curve]"

One compound at a time, from the list above.
`C=CCN(c1ccccc1)S(=O)(=O)c1cccc(C(=O)NNC(=O)c2ccccc2O)c1` is entered as cell number change: 35%; AC50 [1]: 18.4 µM [rising, single point]; AC50 [2]: 18.4 µM [rising, single point]
`COc1ccc(C)cc1Nc1nc(-c2c(C)[nH]c3ccccc23)cs1` is entered as cell number change: -2.41%

The results go on.

SMILES | cell number change | AC50 [1] | AC50 [2]
COc1ccc(CC(=O)OCC(=O)Nc2ccc3[nH]c(=O)[nH]c3c2)cc1 | -20.4% | 3.66 µM [falling, full curve, poor fit] | 2.31 µM [falling, single point]
O=C(N=c1ccn(-c2nc3ccccc3nc2NS(=O)(=O)c2ccccc2)cc1)c1ccccc1Cl | -1.91% |  | 29.1 µM [rising, single point]
COCCCNS(=O)(=O)c1ccc(Cl)c(C(F)(F)F)c1 | 56.9% | 29.1 µM [rising, single point] | 29.1 µM [rising, single point]
Cc1ccc(F)cc1NC(=O)C1C2CCC(O2)C1C(=O)O (stereo unspecified) | -18.5% |  | 14.6 µM [rising, partial curve]
CCOC(=O)C1CCN(C(=O)Cn2nc(C)n3nc(-c4ccc(OC)cc4)cc3c2=O)CC1 | -14.4% |  | 3.66 µM [rising, full curve]
CC1(C)CC(=O)c2cnc(NC3CC3)nc2C1 | -37.3% | 3.66 µM [falling, full curve] | 6.51 µM [falling, single point]
CCOc1ccc(CC(=O)N/N=C(\C)c2cccnc2)cc1 |  |  | 0.58 µM [falling, single point]
COc1ccc(S(=O)(=O)N2CCCC(C(=O)Nc3ccc(OC)c(OC)c3)C2)cc1 (stereo unspecified) | -9.8% |  | 18.4 µM [rising, partial curve]
Nc1nc2sc3c(c2cc1C(=O)N1CCOCC1)CCCC3 | -8.73% |  | 0.00517 µM [falling, full curve, poor fit]
CCCCNCCCCOc1ccccc1 | -30.7% |  | 0.116 µM [falling, partial curve, poor fit]
COc1ccc(Nc2nc(N)nc(CSC(=S)N3CCCCC3C)n2)cc1 (stereo unspecified) | -21.3% |  | 23.1 µM [falling, partial curve]
CCOC(=O)N1CCN(C(=O)CSc2nnc(-c3ccccc3OC)o2)CC1 | -7.99% |  | 0.0184 µM [rising, full curve]
Cc1cc(C(=O)Nc2ccc(N3CCOCC3)cc2)c2ccccc2n1 | 174% | 16.4 µM [rising, partial curve] | 23.1 µM [rising, partial curve]
Cn1c(=O)cc(Cl)[nH]c1=O | -47.4% | 3.66 µM [falling, full curve] | 5.8 µM [falling, full curve]
CN(CC(=O)Nc1ccc(Cl)c(C(F)(F)F)c1)C(=O)C1CC(=O)N(C2CCCC2)C1 (stereo unspecified) | 33.5% | 32.6 µM [rising, single point] | 0.651 µM [rising, single point]
COc1ccc(C2C3=C(CC(C)(C)CC3=O)Oc3ncn(CCO)c(=N)c32)cc1OC (stereo unspecified) |  |  | 6.51 µM [rising, single point]
COC(=O)[C@@H](NC(=O)O[C@@H]1C(=O)c2ccc(OC)cc2O[C@H]1c1cccc(C(F)(F)F)c1)C(C)C | -12.1% |  | 10.3 µM [rising, partial curve]
COc1cccc(CNC(=O)CN(C)S(=O)(=O)c2ccc(Br)s2)c1 | -1.59% |  | 29.1 µM [rising, single point]
O=C(CSc1nc2cc(S(=O)(=O)N3CCOCC3)ccc2o1)Nc1c(F)cccc1F | 37.8% | 0.13 µM [rising, partial curve] | 
CC(=O)N1CCOc2ccc(S(=O)(=O)NCCc3ccc(S(N)(=O)=O)cc3)cc21 | 31.9% |  | 29.1 µM [rising, partial curve]
c1ccc2c(c1)nc(NCC1CCCO1)c1nnnn12 (stereo unspecified) | 9.6% |  | 3.66 µM [rising, partial curve, poor fit]

SMILES | cell number change | AC50 [1] | AC50 [2]
O=c1[nH]c2ccccc2c2cn(-c3ccccc3)nc12 | 4.62% |  | 
COC(=O)c1ccc(C)c(NC(=O)CCc2ccc(OC)c(OC)c2)c1 | 15.9% |  | 2.91 µM [rising, partial curve]
CC(C)NS(=O)(=O)c1ccc(OCC(=O)NC2CCCCCC2)cc1 | -47% | 7.31 µM [falling, full curve, poor fit] | 
CC1CCCCC1NC1=NCCS1 (stereo unspecified) |  |  | 0.00461 µM [falling, full curve]
CNc1ccccc1NC(=O)CCn1c(=S)oc2ccccc21 | 23.2% |  | 6.51 µM [rising, partial curve]
Cc1cccc(C(=O)N2CCN(C(=O)c3cccc(C)c3)C(C)C2)c1 (stereo unspecified) |  | 2.06 µM [rising, partial curve] | 
CC1CCCCN1c1ncnc2ccccc12 (stereo unspecified) | 7.76% |  | 6.51 µM [rising, single point]
CC(=O)Nc1ccc2c(CSc3nnc(-c4cccnc4)n3-c3ccc(C)cc3C)cc(=O)oc2c1 | 66.7% | 0.00731 µM [falling, full curve, poor fit] | 
Cn1c(SCC(=O)N2CCOCC2)nnc1-c1cccc(NC(=O)c2ccccc2F)c1 | -17.1% |  | 18.4 µM [rising, single point]
CCOc1ccc(S(=O)(=O)N(C)CC(=O)NCc2ccc3c(c2)OCO3)cc1 | 10.3% |  | 4.11 µM [falling, partial curve, poor fit]
Cn1c(=Nc2ccccc2)sc2ccccc21 | 37.9% | 13 µM [rising, single point] | 0.651 µM [falling, single point]
COc1ccc([N+](=O)[O-])cc1NC(=S)Nc1ccccc1 |  | 6.51 µM [rising, single point] | 
Cc1c(C(=O)NN2CCN(C)CC2)cccc1[N+](=O)[O-] | 10.9% |  | 
Cc1cc(C)nc(/N=C2\NC(=O)CC(C(=O)O)N2c2cccc(Cl)c2)n1 (stereo unspecified) | -18.5% |  | 5.17 µM [falling, full curve, poor fit]
Cc1c(C(=O)N/N=C/c2ccc(N(C)C)cc2)[nH]c2ccc(Cl)cc12 | -17.2% |  | 1.3 µM [rising, full curve]
O=c1cc(N2CCCCC2)c(-c2ccccc2)nn1Cc1c(Cl)cccc1Cl | -19% | 0.00517 µM [falling, full curve, poor fit] | 
Cc1cnc(C(=O)Nc2nnc(C(C)C)s2)cn1 |  | 6.51 µM [falling, single point] | 
CCOc1ccccc1NC(=O)CN(C)S(=O)(=O)c1cnc[nH]1 | 20.6% |  | 
COc1ccc(/C=C/C(=O)Nc2cc(C)nn2-c2nc3ccccc3[nH]2)cc1 | -10.7% |  | 18.4 µM [falling, single point]
